Results from the supplement of paper PMC12889115.
The list shows a part of the results. These are raw signals, not scaled to a control.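 In the initial screen, polymyxin B was used at a concentration that permeabilizes Salmonella's outer membrane but not its inner membrane. Maximum growth was set by DMSO wells with or without polymyxin B. Since plates varied, data were ranked per plate, and compounds giving the lowest OD600 advanced as hits.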

System: Salmonella enterica serovar Typhimurium SL1344
Assay: bacterial growth OD600 after 18 h with compound and polymyxin B; higher = more bacterial growth (less inhibition)
Details: 50 µM, Mueller-Hinton broth

| SMILES | bacterial growth OD600 (polymyxin B 1 µg/mL) | bacterial growth OD600 (polymyxin B 0.75 µg/mL) |
| --- | --- | --- |
| O=C1N(Cc2ccccc2F)CCCC12CCN(C1CCCC1)C2 (stereo unspecified) | 0.866 |  |
| CCCn1c(C)c(CC(=O)N(C)Cc2nnc(C)o2)c2c1CC(C)(C)CC2=O | 0.842 |  |
| O=C(c1ccncc1)N1CCc2onc(C(c3ccccc3)c3ccccc3)c2C1 |  | 0.721 |
| CCOC(=O)N1CCC(NC(=O)c2oc3c(F)cccc3c2C)CC1 | 1.02 |  |
| O=C(CC1CCCC1)N1CCC(C2(c3ccccn3)NC(=O)N(CCc3cccs3)C2=O)CC1 (stereo unspecified) |  | 0.771 |
| CC(C)c1nc(CNC(=O)c2ccc(N3CCSCC3)nc2)no1 | 0.871 |  |
| CC(C)CCNC(=O)c1cn(C2CCCC2)cc(C(=O)NCC(C)(C)CN(C)C)c1=O |  | 0.808 |
| CC1(C)Cc2nc(N3CCOCC3)ncc2C(NC(=O)COc2ccccc2)C1 (stereo unspecified) |  | 0.952 |
| COc1ccc(CC2=NOC(CNC(=O)c3c(F)cccc3F)C2)cc1 (stereo unspecified) |  | 0.807 |
| Cc1ncsc1C(=O)N1CCc2onc(-c3cccc4ccccc34)c2C1 |  | 0.6 |
| Cc1cnc(N2C[C@H]3OC(=O)N(C4CCCC4)[C@H]3C2)nc1N(C)C |  | 0.831 |
| COc1ccc(NC2CCCN(C(=O)/C=C/c3ccccn3)C2)cc1OC (stereo unspecified) | 0.806 |  |
| COCc1ccc(C(=O)N2CCOC(Cc3cccc(OC)c3)C2)o1 (stereo unspecified) |  | 0.96 |
| Cc1ccccc1CCC1CCCN(C(=O)C2CCC2)C1 (stereo unspecified) |  | 0.225 |
| Cc1nc2ccccc2n1Cc1cc(C(=O)N(C)C)n[nH]1 | 1.04 |  |
| OC(Cc1ccccc1)c1ccc2c(c1)CN(Cc1ccc3c(c1)OCO3)CCO2 (stereo unspecified) |  | 0.121 |
| O=C1N(CC2CCC2)CCCC1(O)CNC12CC3CC(CC(C3)C1)C2 (stereo unspecified) | 0.749 |  |
| CN(C)c1ccc(CN2CCOc3ccc(C(C)(O)COc4ccccc4)cc3C2)cc1 (stereo unspecified) |  | 0.048 |
| CN(CCc1cn[nH]c1)c1ccc(-c2nc(-c3ccccc3F)no2)cn1 | 0.866 |  |
| CCC1CCCCN1c1ccc(C(=O)N2CCCN(c3ncccn3)CC2)cn1 (stereo unspecified) |  | 0.781 |
| O=C(NC1CC(=O)N(CCCc2ccccc2)C1)c1ccncc1 (stereo unspecified) | 0.89 |  |

Some values from the entries so far.
Entry for COCc1ccc(C(=O)N2CCOC(Cc3cccc(OC)c3)C2)o1 (stereo unspecified) under bacterial growth OD600 (polymyxin B 0.75 µg/mL): 0.96
Entry for O=C(CC1CCCC1)N1CCC(C2(c3ccccn3)NC(=O)N(CCc3cccs3)C2=O)CC1 (stereo unspecified) under bacterial growth OD600 (polymyxin B 0.75 µg/mL): 0.771
